Where a name gives a salt, the structure may show the parent alone. This is one part of the list. Repeats in this data set agree poorly, so a single value says little.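 ReNCell VM, a human fetal ventral-midbrain neural progenitor line, was differentiated without mitogens. Blinded raters scored images stained for doublecortin (early neurons) or tyrosine hydroxylase (dopaminergic neurons) against untreated wells (0 = no change). Scores were averaged across repeats and both raters, and compounds averaging 2 or more were selected as hits for retesting.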

The results in this text go back to the supplement of paper PMC4635364.

Test [1] relates to ReNCell VM. Description: neuronal differentiation score (DCX+ cell fraction vs untreated, manual image score) (score (-3 to 3)); higher = more neuronal differentiation. The conditions noted are these: 2 uM, 2 weeks.
In test [2] the test system is ReNCell VM. The test can be described thus: dopaminergic neuron differentiation score (TH+ cell fraction vs untreated, manual image score) (score (0 to 3)); higher = more TH+ dopaminergic neuron differentiation. The conditions noted are these: 2 uM, 4 weeks, BDNF 10 ng/ml + GDNF 10 ng/ml.

`O=c1[nH]c(=O)n([C@H]2C[C@H](O)[C@@H](CO)O2)cc1/C=C/Br` [(E)-5-(2-Bromovinyl)-2'-deoxyuridine]: the neuronal differentiation score in test [1] (library: LOPAC) was inactive: 0. Also, the “dopaminergic neuron differentiation score” value in test [2] (library: LOPAC) was inactive: 0.

Consider `CC(C)Cn1c(=O)n(C)c(=O)c2[nH]cnc21` [3-Isobutyl-1-methylxanthine], for which the neuronal differentiation score in test [1] (library: LOPAC) is inactive: 0. Moreover, the “dopaminergic neuron differentiation score” value in test [2] (library: LOPAC) is inactive: 0.

Turning to `COc1ccc2c(c1OC)C(=O)O[C@@H]2[C@H]1c2c(cc3c(c2OC)OCO3)CCN1C` [Noscapine hydrchloride], the neuronal differentiation score in test [1] (library: LOPAC) is inactive: 0. Besides, in test [2] (library: LOPAC), the “dopaminergic neuron differentiation score” value was inactive: 0.

Consider `COc1ccc2[nH]c([S+]([O-])Cc3ncc(C)c(OC)c3C)nc2n1` (stereo not drawn), for which the neuronal differentiation score in test [1] (library: Spectrum) was inactive: 0. In addition, in test [2] (library: Spectrum), the “dopaminergic neuron differentiation score” value is inactive: 0.

Consider `c1nc(CC2CCNCC2)c[nH]1` [Immepip dihydrobromide], for which, in test [1] (library: Tocriscreen), the neuronal differentiation score is inactive: 0. Further, the “dopaminergic neuron differentiation score” value in test [2] (library: Tocriscreen) was inactive: 0.

For the compound `CN(C)CC(=O)OC[C@@H](O)[C@@H](O)[C@H](O)[C@@H](O)C(=O)O`, in test [1] (library: Spectrum), the neuronal differentiation score is inactive: 0. Also, in test [2] (library: Spectrum), the “dopaminergic neuron differentiation score” value was inactive: 0.

Consider `NC(=O)N/N=C/c1ccc([N+](=O)[O-])o1` [Nitrofural], for which, in test [1] (library: Prestwick), the neuronal differentiation score was inactive: 0. Moreover, the “dopaminergic neuron differentiation score” value in test [2] (library: Prestwick) was inactive: 0.

On to `Nc1ccc(N2C(=O)c3ccccc3C2=O)c(Cl)c1` [N-(4-Amino-2-chlorophenyl)phthalimide], for which the neuronal differentiation score in test [1] (library: LOPAC) is inactive: 0. In addition, in test [2] (library: LOPAC), the “dopaminergic neuron differentiation score” value was inactive: 0.

As for `O=C(/C=C/c1ccccc1)NC(NC(=S)Nc1cccc2cccnc12)C(Cl)(Cl)Cl` (stereo not drawn) [Salubrinal], the neuronal differentiation score in test [1] (library: Tocriscreen) is inactive: 0. Also, in test [2] (library: Tocriscreen), the “dopaminergic neuron differentiation score” value was inactive: 0.

For `Cc1[nH]c(=O)c(C#N)cc1-c1ccncc1`, the neuronal differentiation score in test [1] (library: Spectrum) was inactive: 1. The “dopaminergic neuron differentiation score” value in test [2] (library: Spectrum) was inactive: 0.

On to `COc1cc2c(cc1OC)C(=O)Cc1ccc3c(c1CN(C)CC2)OCO3` [Cryptopine], for which the neuronal differentiation score in test [1] (library: Phytochemical) is inactive: 0. The “dopaminergic neuron differentiation score” value in test [2] (library: Phytochemical) was inactive: 0.

For `NCCC(=O)N[C@@H](Cc1c[nH]cn1)C(=O)O`, the neuronal differentiation score in test [1] (library: Spectrum) was inactive: 0. Further, the “dopaminergic neuron differentiation score” value in test [2] (library: Spectrum) was inactive: 0.

Regarding `COc1ccc2[nH]c(C(=O)c3ccccc3)cc2c1`, the neuronal differentiation score in test [1] (library: Tocriscreen) is inactive: 0. For the same compound, the “dopaminergic neuron differentiation score” value in test [2] (library: Tocriscreen) was inactive: 0.

In the case of `C=CC1=C(C)/C(=C/c2[nH]c(Cc3[nH]c(/C=C4\NC(=O)C(C)=C4C=C)c(C)c3CCC(=O)O)c(CCC(=O)O)c2C)NC1=O`, the neuronal differentiation score in test [1] (library: Spectrum) was inactive: 0. Moreover, the “dopaminergic neuron differentiation score” value in test [2] (library: Spectrum) was inactive: 0.

Turning to `C[C@H]1O[C@@H](n2cc(F)c(=O)[nH]c2=O)[C@H](O)[C@@H]1O`, in test [1] (library: Spectrum), the neuronal differentiation score is inactive: 0. Besides, the “dopaminergic neuron differentiation score” value in test [2] (library: Spectrum) was inactive: 1.

As for `CC(=O)NC1[C@@H](O)OC(CO)[C@@H](O)[C@H]1O[C@H](C)C(=O)O` (stereo in doubt) [Muramic acid, N-acetyl], in test [1] (library: Phytochemical), the neuronal differentiation score was inactive: 0. Moreover, the “dopaminergic neuron differentiation score” value in test [2] (library: Phytochemical) is inactive: 0.

On to `C=C1/C(=C\C=C2/CCC[C@]3(C)[C@@H]([C@H](C)/C=C/[C@@H](O)C4CC4)CC[C@@H]23)C[C@@H](O)C[C@@H]1O` [Calcipotriene], for which the neuronal differentiation score in test [1] (library: Prestwick) is inactive: 0. For the same compound, the “dopaminergic neuron differentiation score” value in test [2] (library: Prestwick) is inactive: 0.

Take `COc1cc2c(c(OC)c1OC)-c1c(cc3c(c1OC)OCO3)C[C@H](C)[C@](C)(O)[C@H]2OC(=O)c1ccccc1` [gomisin C]: the neuronal differentiation score in test [1] (library: Natural) was inactive: 0. For the same compound, in test [2] (library: Natural), the “dopaminergic neuron differentiation score” value is inactive: 0.

Take `C[n+]1cc2c3c(ccc2c2ccc4cc5c(cc4c21)OCO5)OCO3` [Sanguinarine]: in test [1] (library: Phytochemical), the neuronal differentiation score was inactive: 0. In test [2] (library: Phytochemical), the “dopaminergic neuron differentiation score” value is inactive: 0.

Consider `CC(=O)c1cc2ccccc2oc1=O` [3-Acetylcoumarin], for which, in test [1] (library: Phytochemical), the neuronal differentiation score was inactive: 0. Further, the “dopaminergic neuron differentiation score” value in test [2] (library: Phytochemical) is inactive: 0.

Take `CCN(CC)CCCC(C)Nc1ccnc2cc(Cl)ccc12` (stereo not drawn): in test [1] (library: Spectrum), the neuronal differentiation score is inactive: 0. For the same compound, the “dopaminergic neuron differentiation score” value in test [2] (library: Spectrum) is inactive: 0.

`N#C/C(=C\c1ccc(O)c(O)c1)C(=O)NCCCCc1ccccc1`: the neuronal differentiation score in test [1] (library: Tocriscreen) is inactive: 0. For the same compound, in test [2] (library: Tocriscreen), the “dopaminergic neuron differentiation score” value was inactive: 1.

With `CC(=O)O[C@@H]1C[C@@]23C[C@@]24CC[C@H](O[C@@H]2OC[C@@H](O)[C@H](O)[C@H]2O)C(C)(C)[C@@H]4CC[C@H]3[C@]2(C)C[C@@H]3O[C@]4(C[C@@H](C)[C@@H]3[C@@]12C)O[C@H](O)[C@@]1(C)O[C@@H]41`, the neuronal differentiation score in test [1] (library: Spectrum) is inactive: 0. The “dopaminergic neuron differentiation score” value in test [2] (library: Spectrum) is inactive: 1.

On to `O=C1C[C@@H](c2ccc(O)cc2)Oc2cc(O)cc(O)c21`, for which the neuronal differentiation score in test [1] (library: Spectrum) was inactive: 0. Besides, in test [2] (library: Spectrum), the “dopaminergic neuron differentiation score” value was inactive: 0.

As for `CC(C)NC[C@H](O)COc1cccc2ccccc12` [(S)-(-)-Propranolol hydrochloride], the neuronal differentiation score in test [1] (library: Tocriscreen) was inactive: 0. The “dopaminergic neuron differentiation score” value in test [2] (library: Tocriscreen) was inactive: 0.

On to `OC(CCCN1CCCCC1)(c1ccccc1)c1ccccc1` [Diphenidol hydrochloride], for which the neuronal differentiation score in test [1] (library: Prestwick) is inactive: 0. Further, the “dopaminergic neuron differentiation score” value in test [2] (library: Prestwick) is inactive: 0.

As for `CN1CCC[C@@H]1Cc1c[nH]c2ccc(CCS(=O)(=O)c3ccccc3)cc12` [Eletriptan hydrobromide], the neuronal differentiation score in test [1] (library: Tocriscreen) is inactive: 0. Moreover, the “dopaminergic neuron differentiation score” value in test [2] (library: Tocriscreen) was inactive: 0.

Consider `O=c1cc(-c2ccc(O)cc2)oc2cc(O)cc(O)c12`, for which the neuronal differentiation score in test [1] (library: Spectrum) was inactive: -1. The “dopaminergic neuron differentiation score” value in test [2] (library: Spectrum) was inactive: 0.

As for `O=C(O)c1cc2cc(Cc3cccnc3)ccc2o1` [Furegrelate sodium], in test [1] (library: LOPAC), the neuronal differentiation score was inactive: 0. The “dopaminergic neuron differentiation score” value in test [2] (library: LOPAC) was inactive: 0.
